Laboratory results: patent publication US20230270104A1, “USE OF ERYTHRITOL COMPOSITIONS AS MAMMAL-SAFE INSECTICIDES” (Drexel University, priority 2020, published 2023)
Entries after “also recorded” stand apart in the source; their conditions may differ.

Assays:
[1] = test system: R. flavipes workers; experiment: Termite consumption of erythritol-treated filter paper assessed with blue dye; format: in vivo, Reticulitermes flavipes
[2] = test system: R. flavipes workers; experiment: Termite choice test between erythritol-treated and control filter paper disks; format: in vivo, Reticulitermes flavipes; settings: 1.25 M versus 0 M erythritol filter paper disks, 1 h

Structure (SMILES): OC[C@@H](O)[C@@H](O)CO [erythritol, (2R,3S)-butane-1,2,3,4-tetraol]
- consumption of erythritol-treated paper ([1]; all treatment concentrations): consumed by termites at all treatment concentrations; also recorded: consumed erythritol-treated paper at all concentrations
- dead treatment termites with blue dye visible in their guts ([1]; blue-stained filter papers treated with 0.25-1.5 M erythritol, 8 d): 81%
- relative preference / avoidance of erythritol-treated disks [2]: did not differ in their relative preference; also recorded: No difference in termite attendance; also recorded: do not display avoidance; also recorded: did not display avoidance
